In assay [1] the target is Myc-tagged histone H1.2 (UniProt P16403). The assay can be described thus: co-IP; HEK293T co-transfected with pCMV-Myc-H1.2 and a pCMV-Flag plasmid for 36 h; RIPA lysate; H1.2 as the precipitated protein; Protein G Agarose; western blotting.
For assay [2] the target is unchanged. The assay can be described thus: co-IP.
The target of assay [3] is endogenous histone H1.2 (human (endogenous in HEK293T)) (UniProt P16403). Nature of the assay: co-IP.

The chains behind the UniProt entries cited, without tags or fusion partners.
UniProt P16403: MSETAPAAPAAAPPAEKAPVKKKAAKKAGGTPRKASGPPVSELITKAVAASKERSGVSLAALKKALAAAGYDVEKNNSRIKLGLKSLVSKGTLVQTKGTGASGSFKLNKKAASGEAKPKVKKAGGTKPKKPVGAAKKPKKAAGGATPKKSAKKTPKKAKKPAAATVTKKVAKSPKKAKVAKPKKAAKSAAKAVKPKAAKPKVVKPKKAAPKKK

No constants are given. Whether binding was seen depends on the method and setting. In cells and extracts the contact can be indirect. Some binding calls cover weakened binding; strength is not graded here. For part of these data: Sequences can lack the tags named with a protein.

B1: Flag-tagged TBK1 (protein, UniProt Q9UHD2 1-729)
chain: MQSTSNHLWLLSDILGQGATANVFRGRHKKTGDLFAIKVFNNISFLRPVDVQMREFEVLKKLNHKNIVKLFAIEEETTTRHKVLIMEFCPCGSLYTVLEEPSNAYGLPESEFLIVLRDVVGGMNHLRENGIVHRDIKPGNIMRVIGEDGQSVYKLTDFGAARELEDDEQFVSLYGTEEYLHPDMYERAVLRKDHQKKYGATVDLWSIGVTFYHAATGSLPFRPFEGPRRNKEVMYKIITGKPSGAISGVQKAENGPIDWSGDMPVSCSLSRGLQVLLTPVLANILEADQEKCWGFDQFFAETSDILHRMVIHVFSLQQMTAHKIYIHSYNTATIFHELVYKQTKIISSNQELIYEGRRLVLEPGRLAQHFPKTTEENPIFVVSREPLNTIGLIYEKISLPKVHPRYDLDGDASMAKAITGVVCYACRIASTLLLYQELMRKGIRWLIELIKDDYNETVHKKTEVVITLDFCIRNIEKTVKVYEKLMKINLEAAELGEISDIHTKLLRLSSSQGTIETSLQDIDSRLSPGGSLADAWAHQEGTHPKDRNVEKLQVLLNCMTEIYYQFKKDKAERRLAYNEEQIHKFDKQKLYYHATKAMTHFTDECVKKYEAFLNKSEEWIRKMLHLRKQLLSLTNQCFDIEEEVSKYQEYTNELQETLPQKMFTASSGIKHTMTPIYPSSNTLVEMTLGMKKLKEEMEGVVKELAENNHILERFGSLTMDGGLRNVDCL
In the case of B1, the binding result with Myc-tagged histone H1.2 [1] is listed as “no binding”.

B2: endogenous IRF3 (protein, UniProt Q14653 1-427)
chain: MGTPKPRILPWLVSQLDLGQLEGVAWVNKSRTRFRIPWKHGLRQDAQQEDFGIFQAWAEATGAYVPGRDKPDLPTWKRNFRSALNRKEGLRLAEDRSKDPHDPHKIYEFVNSGVGDFSQPDTSPDTNGGGSTSDTQEDILDELLGNMVLAPLPDPGPPSLAVAPEPCPQPLRSPSLDNPTPFPNLGPSENPLKRLLVPGEEWEFEVTAFYRGRQVFQQTISCPEGLRLVGSEVGDRTLPGWPVTLPDPGMSLTDRGVMSYVRHVLSCLGGGLALWRAGQWLWAQRLGHCHTYWAVSEELLPNSGHGPDGEVPKDKEGGVFDLGPFIVDLITFTEGSGRSPRYALWFCVGESWPQDQPWTKRLVMVKVVPTCLRALVEMARVGGASSLENTVDLHISNSHPLSLTSDQYKAYLQDLVEGMDFQGPGES
In the case of B2, the binding result (with Myc-tagged histone H1.2 [2]; in assay [3]) was “binds” throughout.

B3: Flag-tagged MDA5 (protein, UniProt Q9BYX4 1-1025)
chain: MSNGYSTDENFRYLISCFRARVKMYIQVEPVLDYLTFLPAEVKEQIQRTVATSGNMQAVELLLSTLEKGVWHLGWTREFVEALRRTGSPLAARYMNPELTDLPSPSFENAHDEYLQLLNLLQPTLVDKLLVRDVLDKCMEEELLTIEDRNRIAAAENNGNESGVRELLKRIVQKENWFSAFLNVLRQTGNNELVQELTGSDCSESNAEIENLSQVDGPQVEEQLLSTTVQPNLEKEVWGMENNSSESSFADSSVVSESDTSLAEGSVSCLDESLGHNSNMGSDSGTMGSDSDEENVAARASPEPELQLRPYQMEVAQPALEGKNIIICLPTGSGKTRVAVYIAKDHLDKKKKASEPGKVIVLVNKVLLVEQLFRKEFQPFLKKWYRVIGLSGDTQLKISFPEVVKSCDIIISTAQILENSLLNLENGEDAGVQLSDFSLIIIDECHHTNKEAVYNNIMRHYLMQKLKNNRLKKENKPVIPLPQILGLTASPGVGGATKQAKAEEHILKLCANLDAFTIKTVKENLDQLKNQIQEPCKKFAIADATREDPFKEKLLEIMTRIQTYCQMSPMSDFGTQPYEQWAIQMEKKAAKEGNRKERVCAEHLRKYNEALQINDTIRMIDAYTHLETFYNEEKDKKFAVIEDDSDEGGDDEYCDGDEDEDDLKKPLKLDETDRFLMTLFFENNKMLKRLAENPEYENEKLTKLRNTIMEQYTRTEESARGIIFTKTRQSAYALSQWITENEKFAEVGVKAHHLIGAGHSSEFKPMTQNEQKEVISKFRTGKINLLIATTVAEEGLDIKECNIVIRYGLVTNEIAMVQARGRARADESTYVLVAHSGSGVIEHETVNDFREKMMYKAIHCVQNMKPEEYAHKILELQMQSIMEKKMKTKRNIAKHYKNNPSLITFLCKNCSVLACSGEDIHVIEKMHHVNMTPEFKELYIVRENKALQKKCADYQINGEIICKCGQAWGTMMVHKGLDLPCLKIRNFVVVFKNNSTKKQYKKWVELPITFPNLDYSECCLFSDED
As to B3, the binding result in the assay with Myc-tagged histone H1.2 [1] is given as “binds”.

B4: endogenous MDA5 (protein, UniProt Q9BYX4 1-1025)
chain: B3 chain
For B4, the binding entry (in the assay with Myc-tagged histone H1.2 [2]; in assay [3]) was “binds” each time.

The record behind these values is paper PMC10892618.
